Source: patent US6569902B2, “Nitrone inhibition of cancer development” (Oklahoma Medical Research Foundation, priority 2000, dated 2003)
For part of these data: At least one structure is not confirmed: it was looked up by name or label, or the drawing left a doubt. Some entries share one result that the patent states for a list of compounds.

Experiments:
rats fed the CDAA diet = settings: rat, in vivo; cited from earlier work
[1] = tested on: GST-P-positive lesions in livers of male Wistar rats fed the CDAA diet; test: Example 2: numbers and sizes of GST-P-positive liver lesions, CDAA diet for 16 weeks; format: in vivo, rat; settings: discussion, dose not stated
Protocol: Animals. A total of 110 male Wistar rats were obtained at 5 weeks of age from Charles River Japan, Inc., Atsugi, Kanagawa, Japan. Experimentation began after a 1-week acclimation on a basal diet (CE-2 diet, Clea Japan, Meguro, Tokyo, Japan). Rats were housed 5 each in plastic cages with white flake bedding (Kansai Animal Corp., City of Kyoto, Kyoto, Japan) in a standard atmosphere (temperature, 25±3° C.; relative humidity, 55±8%; ventilation, 10-15/hour; and a 12-hour dark/light cycle). Free access to food and tap water was allowed throughout the acclimation and experimental periods.
Diets and chemicals. The CDAA diet and its control, a choline-supplemented, L-amino acid-defined (CSAA) diet (Nakae et al. 1992; and Nakae et al. 1990) were obtained from Dyets, Inc., Bethlehem, Pa. […] 2-Sulfoxy-PBN (2-SPBN) was purchased from Aldrich Chemical Co. (Milwaukee, Wis.).
Animal experiment. After acclimation, rats were divided equally into 22 groups consisting of 5 animals each. Animals in group 1 received the CDAA diet alone. […] Groups 5-7, 8-10, 11-13 and 14-16 received the CDAA diet containing the low, middle, and high doses of 4-OHPBN, 3-OHPBN, 2-OHPBN and 2-SPBN, respectively. […]
Histological and immunohistochemical assessments. […] Gradation of fibrosis was quantitatively evaluated in groups 1, 4, 7, 10, 13, 16 and 17 by calculating the percent area occupied by collagen fiber stained blue by Masson's trichrome method using an IPAP image analyzing system (Sumika Technoservice Corp., City of Osaka, Osaka, Japan). […] Lesions consisting of more than 6 cells were quantified using the IPAP system as described elsewhere (Kishida et al. 2000). The amount of apoptosis and the cellular proliferative activity were determined in groups 1, 4, 7, 10, 13, 16 and 17, using the double staining techniques by combination of the GST-P immunohistochemistry as above with the in situ terminal deoxynucleotidyl transferase-mediated dUTP-biotin nick end-labeling method (Gold et al. 1994) and the enhanced polymer one-step staining method for proliferating cell nuclear antigen (Tsutsumi et al. 1995), respectively. […]

[2] = tested on: hepatocytes of male Wistar rats fed the CDAA diet; test: Example 2: apoptotic and proliferative indices in GST-P-positive lesions and surrounding tissue; format: in vivo, rat; settings: high dose 0.090%
From the text: Animal experiment. After acclimation, rats were divided equally into 22 groups consisting of 5 animals each. Animals in group 1 received the CDAA diet alone. […] Groups 5-7, 8-10, 11-13 and 14-16 received the CDAA diet containing the low, middle, and high doses of 4-OHPBN, 3-OHPBN, 2-OHPBN and 2-SPBN, respectively. Group 17 received the CSAA diet alone. […] All animals were sacrificed by exsanguination under light ether anesthesia 16 weeks after commencement, and the livers excised. Slices 5-mm-thick were taken from the left lateral, median and right lateral lobes of the livers, fixed in 10% neutrally-buffered formalin for 24 hours and then embedded in paraffin. Five serial 4-μm-thick sections were prepared from each fixed liver slice and used for histological and immunohistochemical assessment as described below. The remaining portions of the livers were immediately frozen under liquid nitrogen and stored at −80° C. until use.
Histological and immunohistochemical assessments. […] Gradation of fibrosis was quantitatively evaluated in groups 1, 4, 7, 10, 13, 16 and 17 by calculating the percent area occupied by collagen fiber stained blue by Masson's trichrome method using an IPAP image analyzing system (Sumika Technoservice Corp., City of Osaka, Osaka, Japan). […] Lesions consisting of more than 6 cells were quantified using the IPAP system as described elsewhere (Kishida et al. 2000). […]

Compound | effect on any of the parameters (rats fed the CDAA diet) | sizes of GST-P-positive lesions, % of the positive control level [1] | apoptotic index in the GST-P-positive lesions, fold over the group 1 value [2]
O=C1O[C@H]([C@@H](O)CO)C(O)=C1O [ascorbate] | very little effect |  | 
CC(C)(C)[N+]([O-])=Cc1ccccc1 [PBN, phenyl N-tert-butyl nitrone] |  | ≤ 20% | 
CC(C)(C)[N+]([O-])=Cc1cccc(O)c1 [3-OHPBN, 3-hydroxyphenyl N-tert-butylnitrone] |  | ≤ 20% | 3-4 fold
CC(C)(C)[N+]([O-])=Cc1ccc(O)cc1 [4-OHPBN, 4-hydroxyphenyl N-tert-butylnitrone] |  | ≤ 20% | 3-4 fold
